Values from PubChem BioAssay AID1508588 (Peter MacCallum Cancer Centre, 2020)
Screen: 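Which gene losses make BRAF-mutant melanoma cells more responsive to vemurafenib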 (primary screen). Cell system: human WM266.4 melanoma cells (BRAF V600 mutant). Reagents: siRNA pool against human genes, 40 nM. Duration: 96 h from transfection to read-out. Challenge: vemurafenib 300 nM (about IC25), added 48 h after transfection, for 48 h; comparison arm got DMSO vehicle only. Read-out: 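Cell gain (DAPI nuclei at end minus before drug, mean of two replicates) and medium lactate by absorbance per cell, both as ratio to non-targeting siRNA, also grouped into fold-change classes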. Direction: cell gain with vemurafenib: higher = more cell gain than with non-targeting siRNA; lactate per cell with vemurafenib: higher = more lactate made per cell. Rule for the call: 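Enhancement is called by pairing each knock-down's vehicle-arm and drug-arm fold-change classes for viability or glycolysis; which class combinations qualify is not given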. Meaning of the calls: active = enhances vemurafenib effect; inactive = no enhancement seen.
Shown is an unselected part of about 18,000 reagents tested. 790 of all reagents (4.4%) count as active. 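Calls rest on a combination of fold-change classes in drug and vehicle arms, not all shown here.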 No sequences are given here.

VNN3P
- cell gain with vemurafenib: 0.41
- lactate per cell with vemurafenib: 0.94
- Call: inactive

ARHGEF39
- cell gain with vemurafenib: 0.05
- lactate per cell with vemurafenib: 1.66
- Call: inactive

ARPC5
- cell gain with vemurafenib: 0.3
- lactate per cell with vemurafenib: 0.92
- Call: inactive

MEIG1
- cell gain with vemurafenib: 1.02
- lactate per cell with vemurafenib: 0.88
- Call: inactive

TTC39C
- cell gain with vemurafenib: 0.79
- lactate per cell with vemurafenib: 0.99
- Call: inactive

ZDHHC21
- cell gain with vemurafenib: 0.81
- lactate per cell with vemurafenib: 0.48
- Call: inactive

DIDO1
- cell gain with vemurafenib: 0.25
- lactate per cell with vemurafenib: 0.88
- Call: inactive

SLPI
- cell gain with vemurafenib: 0.86
- lactate per cell with vemurafenib: 0.72
- Call: inactive

PRRT2
- cell gain with vemurafenib: 1.38
- lactate per cell with vemurafenib: 0.93
- Call: inactive

Reformatted: 2 of the entries above
gene symbol | cell gain with vemurafenib | lactate per cell with vemurafenib | Call
DIDO1 | 0.25 | 0.88 | inactive
SLPI | 0.86 | 0.72 | inactive

More entries follow.
CSTF2
- cell gain with vemurafenib: 0.5
- lactate per cell with vemurafenib: 1.19
- Call: inactive

DOLPP1
- cell gain with vemurafenib: 0.66
- lactate per cell with vemurafenib: 0.96
- Call: inactive

SFXN4
- cell gain with vemurafenib: 0.67
- lactate per cell with vemurafenib: 0.66
- Call: inactive

CRTC2
- cell gain with vemurafenib: 0.51
- lactate per cell with vemurafenib: 1.03
- Call: inactive

CD14
- cell gain with vemurafenib: 0.59
- lactate per cell with vemurafenib: 1.15
- Call: inactive

NDUFB11
- cell gain with vemurafenib: 1.11
- lactate per cell with vemurafenib: 0.88
- Call: inactive

DHX58
- cell gain with vemurafenib: 0.46
- lactate per cell with vemurafenib: 0.9
- Call: inactive
